For some assays here: At least one result comes from cells or an extract, where the contact may be indirect. For some assays here: Negatives hold for the conditions tested. For some assays here: Protein sequences can lack the tags named with them. For some assays here: For at least one entry, the source does not settle the construct or the ends of the probe.
Tests used:
[1] = system: NRSF/REST (lambda-H1 encoded partial protein) (Homo sapiens); test: EMSA; conditions: protein translated in vitro, protein details: poly-histidine (pRSET B fusion)
[2] = molecular target: T1, NRSF/REST (native) (Homo sapiens) (UniProt Q13127); test: EMSA; conditions: protein in an extract, protein details: HeLa nuclear extract
T1 sequence (looked up, limits assumed): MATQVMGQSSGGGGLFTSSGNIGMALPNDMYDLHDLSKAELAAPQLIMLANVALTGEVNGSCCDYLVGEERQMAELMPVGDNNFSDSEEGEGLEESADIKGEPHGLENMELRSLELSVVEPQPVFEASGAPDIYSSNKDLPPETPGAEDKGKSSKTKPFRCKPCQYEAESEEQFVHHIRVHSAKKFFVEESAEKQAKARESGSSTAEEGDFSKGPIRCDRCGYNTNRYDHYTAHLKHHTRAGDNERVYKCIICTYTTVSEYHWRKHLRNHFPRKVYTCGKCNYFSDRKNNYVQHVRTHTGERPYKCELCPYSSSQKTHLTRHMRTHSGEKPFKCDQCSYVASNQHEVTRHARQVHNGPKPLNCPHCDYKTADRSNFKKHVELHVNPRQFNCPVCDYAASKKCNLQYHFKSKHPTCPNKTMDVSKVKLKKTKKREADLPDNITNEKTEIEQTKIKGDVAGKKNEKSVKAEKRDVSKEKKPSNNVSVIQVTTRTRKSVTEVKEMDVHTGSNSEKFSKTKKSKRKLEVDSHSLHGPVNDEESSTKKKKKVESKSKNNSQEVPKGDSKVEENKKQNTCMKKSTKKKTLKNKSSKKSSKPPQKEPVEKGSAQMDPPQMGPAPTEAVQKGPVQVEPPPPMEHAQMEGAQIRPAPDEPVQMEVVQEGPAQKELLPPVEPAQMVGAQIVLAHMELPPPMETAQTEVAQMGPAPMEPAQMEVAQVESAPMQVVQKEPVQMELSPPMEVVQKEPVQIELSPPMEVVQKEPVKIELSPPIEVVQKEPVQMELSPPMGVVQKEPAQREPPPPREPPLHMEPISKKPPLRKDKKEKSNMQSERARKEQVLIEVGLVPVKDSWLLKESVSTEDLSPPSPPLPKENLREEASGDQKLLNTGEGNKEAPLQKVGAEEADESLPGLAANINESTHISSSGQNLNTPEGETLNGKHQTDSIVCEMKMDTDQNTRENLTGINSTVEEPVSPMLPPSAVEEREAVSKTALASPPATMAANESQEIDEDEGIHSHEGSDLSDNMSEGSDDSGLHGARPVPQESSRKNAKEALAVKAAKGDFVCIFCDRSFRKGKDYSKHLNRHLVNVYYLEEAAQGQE

[3] = molecular target: T2, NRSF/REST (lambda-HZ4 partial) (Homo sapiens) (UniProt Q13127); test: activity in cells; conditions: pCAT3-S36++ CAT reporter, two NRSE copies, PC12 cells; protein in cells; protein details: initiating Met from pcDNA3-ATG vector; only the site is given
T2 sequence: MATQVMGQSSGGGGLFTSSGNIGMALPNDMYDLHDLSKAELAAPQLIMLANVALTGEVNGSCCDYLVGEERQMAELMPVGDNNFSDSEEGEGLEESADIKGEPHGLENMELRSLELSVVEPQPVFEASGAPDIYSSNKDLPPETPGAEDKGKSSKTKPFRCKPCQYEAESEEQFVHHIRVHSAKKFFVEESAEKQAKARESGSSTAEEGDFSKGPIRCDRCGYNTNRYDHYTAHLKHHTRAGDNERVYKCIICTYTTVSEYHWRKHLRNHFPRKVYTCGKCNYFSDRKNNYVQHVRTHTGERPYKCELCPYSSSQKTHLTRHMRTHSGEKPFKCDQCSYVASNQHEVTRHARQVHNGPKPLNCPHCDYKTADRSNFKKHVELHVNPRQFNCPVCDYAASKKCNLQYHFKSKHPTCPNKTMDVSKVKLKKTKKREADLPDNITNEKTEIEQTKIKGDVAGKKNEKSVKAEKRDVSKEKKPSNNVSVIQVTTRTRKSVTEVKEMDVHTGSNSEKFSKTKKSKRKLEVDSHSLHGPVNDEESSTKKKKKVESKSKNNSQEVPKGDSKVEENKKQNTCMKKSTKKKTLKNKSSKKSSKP

[4] = system: NRSF/REST (lambda-H1 encoded partial protein) (Homo sapiens); test: competition with a labelled probe; conditions: no competition of S36 complex in EMSA; protein translated in vitro; protein details: poly-histidine (pRSET B fusion)
[5] = molecular target: T1, NRSF/REST (native) (Homo sapiens); test: competition with a labelled probe; conditions: no competition of S36 complex in EMSA; protein in an extract; protein details: HeLa nuclear extract
[6] = restriction fragment probe containing the NRSE, label: 32P

“AGAGTCCATTCAGCACCTTGGACAGAGCCAGCGG (double strand) [BDNF NRSE]”: binds [1, 6]; binds ([2]; label: 32P).
“AGCTGCAAAGCCATTTCAGCACCACGGAGAGTGCCTCTGC (double strand) [S36 (SCG10 NRSE)]” was tested, and the binding result ([1]; probe with two tandem S36 copies, supershifted by anti-GST-lambda-H1, label: 32P) was “binds”, the binding result ([2]; HeLa nuclear extract, partially supershifted, label: 32P) was “binds” and the “activity on this sequence” value [3] was “active”.
“ATGCCAGCTTCAGCACCGCGGACAGTGCCTTCC (double strand) [Syn (synapsin I NRSE)]”: binds [1, 6]; binds ([2]; label: 32P).
“ATTGGGTTTCAGAACCACGGACAGCACCAGAGT (double strand) [Na33 (type II sodium channel NRSE)]”: binds [1]; binds [2].
“GCGGAACGGAAGCGGAAACCG (double strand) [Ets factor site]”: no binding [4]; no binding [5].
